For test [1], the target named is desmoplakin (mouse (endogenous in HL-1)) (UniProt E9Q557). Description: co-IP.
The target in test [2] is T1, desmoglein 2 (mouse (endogenous in HL-1)) (UniProt O55111).
T1 sequence: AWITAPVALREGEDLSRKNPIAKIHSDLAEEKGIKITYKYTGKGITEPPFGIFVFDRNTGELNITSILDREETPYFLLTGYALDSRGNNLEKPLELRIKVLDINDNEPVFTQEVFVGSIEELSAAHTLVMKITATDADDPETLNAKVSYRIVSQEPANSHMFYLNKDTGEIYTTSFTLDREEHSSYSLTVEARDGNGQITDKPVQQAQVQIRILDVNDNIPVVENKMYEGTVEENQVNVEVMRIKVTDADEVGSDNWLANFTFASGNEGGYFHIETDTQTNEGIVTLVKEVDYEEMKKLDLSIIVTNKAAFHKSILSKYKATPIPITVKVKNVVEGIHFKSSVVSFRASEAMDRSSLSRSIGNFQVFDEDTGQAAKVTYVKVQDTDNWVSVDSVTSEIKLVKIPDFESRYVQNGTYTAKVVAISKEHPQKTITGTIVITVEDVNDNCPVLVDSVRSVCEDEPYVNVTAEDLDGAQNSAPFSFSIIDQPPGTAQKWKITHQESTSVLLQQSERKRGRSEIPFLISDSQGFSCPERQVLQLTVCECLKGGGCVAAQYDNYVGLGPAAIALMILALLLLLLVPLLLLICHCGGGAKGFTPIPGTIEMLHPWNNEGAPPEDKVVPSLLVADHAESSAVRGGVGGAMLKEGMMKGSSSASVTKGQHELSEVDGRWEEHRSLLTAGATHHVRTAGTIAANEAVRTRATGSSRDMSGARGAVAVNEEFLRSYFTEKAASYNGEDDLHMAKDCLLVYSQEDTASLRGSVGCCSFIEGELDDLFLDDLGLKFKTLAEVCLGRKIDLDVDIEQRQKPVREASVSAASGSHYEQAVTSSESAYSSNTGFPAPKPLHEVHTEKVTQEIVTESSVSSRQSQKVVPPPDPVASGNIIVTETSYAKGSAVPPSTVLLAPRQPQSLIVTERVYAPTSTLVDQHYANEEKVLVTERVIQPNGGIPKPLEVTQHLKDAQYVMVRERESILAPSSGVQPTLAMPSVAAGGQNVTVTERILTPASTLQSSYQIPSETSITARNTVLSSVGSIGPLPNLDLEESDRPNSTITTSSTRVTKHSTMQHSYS
Description: co-IP.

By UniProt entry, the sequences of proteins in these tests, tags left out.
UniProt E9Q557: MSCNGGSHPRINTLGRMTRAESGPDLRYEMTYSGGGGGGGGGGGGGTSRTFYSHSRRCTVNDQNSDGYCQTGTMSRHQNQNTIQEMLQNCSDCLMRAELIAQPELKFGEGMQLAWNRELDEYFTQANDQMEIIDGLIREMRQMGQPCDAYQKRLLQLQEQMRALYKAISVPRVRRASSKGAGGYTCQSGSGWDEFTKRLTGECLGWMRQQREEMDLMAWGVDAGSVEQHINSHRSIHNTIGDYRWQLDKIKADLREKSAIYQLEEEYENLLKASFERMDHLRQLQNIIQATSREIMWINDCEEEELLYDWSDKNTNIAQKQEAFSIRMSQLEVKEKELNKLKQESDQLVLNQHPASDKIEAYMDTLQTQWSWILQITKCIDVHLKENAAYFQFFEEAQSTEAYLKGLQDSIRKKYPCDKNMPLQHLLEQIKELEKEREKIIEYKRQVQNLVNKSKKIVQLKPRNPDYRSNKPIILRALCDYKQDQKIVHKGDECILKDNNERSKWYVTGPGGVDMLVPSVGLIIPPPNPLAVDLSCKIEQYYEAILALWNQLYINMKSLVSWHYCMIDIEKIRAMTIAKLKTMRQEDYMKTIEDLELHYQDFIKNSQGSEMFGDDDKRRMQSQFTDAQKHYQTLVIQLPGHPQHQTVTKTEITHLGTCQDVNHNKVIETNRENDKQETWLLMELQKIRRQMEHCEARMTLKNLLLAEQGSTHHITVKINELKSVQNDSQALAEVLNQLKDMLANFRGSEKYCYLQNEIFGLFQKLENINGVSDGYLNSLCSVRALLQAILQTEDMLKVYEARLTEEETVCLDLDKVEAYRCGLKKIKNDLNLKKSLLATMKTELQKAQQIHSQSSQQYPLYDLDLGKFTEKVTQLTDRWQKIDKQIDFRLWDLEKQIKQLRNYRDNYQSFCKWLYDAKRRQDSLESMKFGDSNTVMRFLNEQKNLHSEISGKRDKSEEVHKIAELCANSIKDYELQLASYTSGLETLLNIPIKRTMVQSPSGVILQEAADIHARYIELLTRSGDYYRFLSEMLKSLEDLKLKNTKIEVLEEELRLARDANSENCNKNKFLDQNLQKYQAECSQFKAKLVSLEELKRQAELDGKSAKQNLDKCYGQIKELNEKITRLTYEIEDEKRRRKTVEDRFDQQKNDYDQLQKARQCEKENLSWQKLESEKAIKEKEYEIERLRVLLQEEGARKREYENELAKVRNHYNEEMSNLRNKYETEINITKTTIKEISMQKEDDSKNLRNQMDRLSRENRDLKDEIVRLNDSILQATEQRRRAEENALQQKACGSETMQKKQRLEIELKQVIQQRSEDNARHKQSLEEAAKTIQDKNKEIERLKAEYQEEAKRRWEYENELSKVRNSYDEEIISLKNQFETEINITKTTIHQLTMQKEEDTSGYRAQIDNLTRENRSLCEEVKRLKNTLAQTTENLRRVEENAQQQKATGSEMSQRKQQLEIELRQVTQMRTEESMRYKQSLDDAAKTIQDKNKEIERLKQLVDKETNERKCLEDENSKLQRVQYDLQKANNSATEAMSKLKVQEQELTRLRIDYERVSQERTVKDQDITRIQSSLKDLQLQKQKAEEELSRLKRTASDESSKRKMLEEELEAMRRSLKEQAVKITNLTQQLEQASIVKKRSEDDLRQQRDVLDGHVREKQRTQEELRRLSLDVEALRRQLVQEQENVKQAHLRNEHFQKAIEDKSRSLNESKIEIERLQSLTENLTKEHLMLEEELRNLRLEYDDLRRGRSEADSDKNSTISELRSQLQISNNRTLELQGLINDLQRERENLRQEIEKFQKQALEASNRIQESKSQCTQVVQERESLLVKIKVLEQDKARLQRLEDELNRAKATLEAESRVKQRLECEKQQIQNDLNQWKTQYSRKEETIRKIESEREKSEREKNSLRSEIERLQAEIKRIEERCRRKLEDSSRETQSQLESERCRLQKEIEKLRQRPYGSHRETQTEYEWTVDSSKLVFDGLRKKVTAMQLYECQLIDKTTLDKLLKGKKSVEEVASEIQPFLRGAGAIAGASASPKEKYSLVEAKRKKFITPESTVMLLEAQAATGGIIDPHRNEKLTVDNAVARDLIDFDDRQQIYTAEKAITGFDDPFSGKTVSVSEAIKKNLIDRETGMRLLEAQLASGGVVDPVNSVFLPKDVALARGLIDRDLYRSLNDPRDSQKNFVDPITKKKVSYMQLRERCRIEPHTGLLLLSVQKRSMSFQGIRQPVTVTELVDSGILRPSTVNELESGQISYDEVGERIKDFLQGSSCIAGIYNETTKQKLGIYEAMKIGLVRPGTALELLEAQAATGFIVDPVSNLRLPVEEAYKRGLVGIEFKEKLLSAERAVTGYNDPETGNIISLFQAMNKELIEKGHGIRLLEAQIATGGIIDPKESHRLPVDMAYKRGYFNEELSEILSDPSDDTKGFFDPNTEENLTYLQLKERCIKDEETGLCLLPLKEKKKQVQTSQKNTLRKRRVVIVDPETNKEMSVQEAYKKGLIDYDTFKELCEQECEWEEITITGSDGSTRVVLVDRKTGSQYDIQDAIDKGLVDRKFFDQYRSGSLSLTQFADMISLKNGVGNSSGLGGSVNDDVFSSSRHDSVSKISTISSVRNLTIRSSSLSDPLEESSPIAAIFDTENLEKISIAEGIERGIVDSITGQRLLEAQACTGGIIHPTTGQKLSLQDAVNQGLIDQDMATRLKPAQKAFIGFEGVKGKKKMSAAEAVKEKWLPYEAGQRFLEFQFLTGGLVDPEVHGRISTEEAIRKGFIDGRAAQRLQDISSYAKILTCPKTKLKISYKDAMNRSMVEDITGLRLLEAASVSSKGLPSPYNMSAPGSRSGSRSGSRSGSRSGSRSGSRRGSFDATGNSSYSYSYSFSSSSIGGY

These are yes or no findings as the source states them, for the method shown. Binding seen in cells or lysates may run through a third protein. Some binding calls cover weakened binding; strength is not graded here.

For “epidermal growth factor receptor (from UniProt Q01279 25-1210)”, the binding result in test [1] and in test [2] was “binds” throughout.

For the origin of these results see paper doi:10.1101/2022.04.27.489705.
